According to patent US20250120397A1, “PEST CONTROL METHOD” (National Chung Hsing University, priority 2023, published 2025):
Some of these results come from one statement about several compounds together.

Test system: mosquito larvae
Experiment: Mosquito larvae killing in 100 mL deionized water, 24 hours, fatality rate
Type: in vivo
Details: doses 5 mg per 100 ml of water or higher
Method: Artificially raised non-pathogenic mosquito larvae were divided into a plurality of groups each including 30 larvae. Each group of larvae was put into a 1-L container together with 100 mL of deionized water. Then, a reagent containing a spreading agent for agricultural use as well as an isododecane and an isohexadecane in a ratio of 4:1 was added into the deionized water in each container at one of a plurality of predetermined doses and thoroughly mixed. The containers were left uncovered. After 24 hours, the numbers of deaths of the mosquito larvae were counted.

CC(CC(C)(C)C)CC(C)(C)C [2,2,4,6,6-pentamethylheptane]
fatality rates of mosquito larvae: exceeded 50%
